# Some of the results follow. Most of these values are background signal.
# Tests used:
# Experiment in all cases: fluorescence intensity of antibody binding to polysaccharide-coupled beads; higher = stronger binding
# [1] = target: pneumococcal polysaccharide Pn33B
# Protocol: (§1)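 Recombinant rhesus-murine chimeric IgG1 antibodies were tested against antigen-coupled MagPlex beads in a 96-plex Luminex direct immunoassay (dLIA). The beads carried pneumococcal capsular polysaccharides of 93 serotypes plus C-polysaccharides. Antibody was added at 0.1–12,500 ng/mL for 1 h, then PE anti-mouse IgG, and net MFI was read on a Bio-Plex 3D. Only the rhesus variable regions are printed; constant regions are murine IgG1/kappa/lambda, and the signal peptide is MGWSCIILFLVATATGVHS.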
# [2] = target: pneumococcal polysaccharide Pn33C
# Protocol: as §1
# [3] = target: pneumococcal polysaccharide Pn33D
# Protocol: as §1
# [4] = target: pneumococcal polysaccharide Pn33F
# Protocol: as §1
# [5] = target: pneumococcal polysaccharide Pn34
# Protocol: as §1
# [6] = target: pneumococcal polysaccharide Pn35A
# Protocol: as §1
# [7] = target: pneumococcal polysaccharide Pn35B
# Protocol: as §1
# [8] = target: pneumococcal polysaccharide Pn35C
# Protocol: as §1
# [9] = target: pneumococcal polysaccharide Pn35F
# Protocol: as §1
# [10] = target: pneumococcal polysaccharide Pn36
# Protocol: as §1
# [11] = target: pneumococcal polysaccharide Pn37
# Protocol: as §1
# [12] = target: pneumococcal polysaccharide Pn38
# Protocol: as §1
# [13] = target: pneumococcal polysaccharide Pn39
# Protocol: as §1
# [14] = target: pneumococcal polysaccharide Pn4
# Protocol: as §1
# [15] = target: pneumococcal polysaccharide Pn40
# Protocol: as §1
# [16] = target: pneumococcal polysaccharide Pn41A
# Protocol: as §1
# [17] = target: pneumococcal polysaccharide Pn41F
# Protocol: as §1
# [18] = target: pneumococcal polysaccharide Pn42
# Protocol: as §1
# [19] = target: pneumococcal polysaccharide Pn43
# Protocol: as §1
# [20] = target: pneumococcal polysaccharide Pn44
# Protocol: as §1
# [21] = target: pneumococcal polysaccharide Pn45
# Protocol: as §1
# [22] = target: pneumococcal polysaccharide Pn46
# Protocol: as §1
# [23] = target: pneumococcal polysaccharide Pn47A
# Protocol: as §1
# [24] = antibody concentration 2.8593 ng/mL
# [25] = antibody concentration 15.2894 ng/mL
# [26] = antibody concentration 81.7561 ng/mL
# [27] = antibody concentration 437.17 ng/mL
# [28] = antibody concentration 2337.65 ng/mL
# [29] = antibody concentration 12500 ng/mL
# [30] = antibody concentration 0.1 ng/mL
# [31] = antibody concentration 0.534724 ng/mL
binder,measurement,setting,value
4-173.1 (protein) chain 1: QLQLQESGPGLVKPSETLSLTCAVSGASISSNYWSWIRQAPGKGLEWIGRISGSSGSTDYNPSLKSRVTISTDTSKNQFSLKLNSVTAADTAVYYCARVSYWGHYGDYWGQGVLVTVSS chain 2: QPVLTQPSSHSASPGAPARLTCTLSSGFSVGDFWIRWYQQKPGSPPRYLLYYHSDSDKHQGSGVPSRFSGSNDASANAGILHISGLQPEDEADYYCCTWHGNSKTQIFGAGTRLTVL,fluorescence intensity,[1]; [24],18.5 MFI
same,fluorescence intensity,[1]; [25],18 MFI
same,fluorescence intensity,[1]; [26],18.8 MFI
same,fluorescence intensity,[1]; [27],19 MFI
same,fluorescence intensity,[1]; [28],18.8 MFI
same,fluorescence intensity,[1]; [29],20.5 MFI
same,fluorescence intensity,[2]; [30],19 MFI
same,fluorescence intensity,[2]; [31],19.5 MFI
same,fluorescence intensity,[2]; [24],17.8 MFI
same,fluorescence intensity,[2]; [25],20.2 MFI
same,fluorescence intensity,[2]; [26],20.5 MFI
same,fluorescence intensity,[2]; [27],19.5 MFI
same,fluorescence intensity,[2]; [28],21 MFI
same,fluorescence intensity,[2]; [29],29.5 MFI
same,fluorescence intensity,[3]; [30],16 MFI
same,fluorescence intensity,[3]; [31],16 MFI
same,fluorescence intensity,[3]; [24],17 MFI
same,fluorescence intensity,[3]; [25],16 MFI
same,fluorescence intensity,[3]; [26],15.8 MFI
same,fluorescence intensity,[3]; [27],16.5 MFI
same,fluorescence intensity,[3]; [28],18.5 MFI
same,fluorescence intensity,[3]; [29],19.2 MFI
same,fluorescence intensity,[4]; [30],14.2 MFI
same,fluorescence intensity,[4]; [31],13.5 MFI
same,fluorescence intensity,[4]; [24],14 MFI
same,fluorescence intensity,[4]; [25],14 MFI
same,fluorescence intensity,[4]; [26],14.8 MFI
same,fluorescence intensity,[4]; [27],13.8 MFI
same,fluorescence intensity,[4]; [28],17.5 MFI
same,fluorescence intensity,[4]; [29],43.5 MFI
same,fluorescence intensity,[5]; [30],15 MFI
same,fluorescence intensity,[5]; [31],16 MFI
same,fluorescence intensity,[5]; [24],14.5 MFI
same,fluorescence intensity,[5]; [25],13.5 MFI
same,fluorescence intensity,[5]; [26],14.5 MFI
same,fluorescence intensity,[5]; [27],14.5 MFI
same,fluorescence intensity,[5]; [28],14.8 MFI
same,fluorescence intensity,[5]; [29],16.5 MFI
same,fluorescence intensity,[6]; [30],17.5 MFI
same,fluorescence intensity,[6]; [31],18 MFI
same,fluorescence intensity,[6]; [24],19 MFI
same,fluorescence intensity,[6]; [25],17.5 MFI
same,fluorescence intensity,[6]; [26],16.5 MFI
same,fluorescence intensity,[6]; [27],19 MFI
same,fluorescence intensity,[6]; [28],20.5 MFI
same,fluorescence intensity,[6]; [29],33.5 MFI
same,fluorescence intensity,[7]; [30],19.5 MFI
same,fluorescence intensity,[7]; [31],20.5 MFI
same,fluorescence intensity,[7]; [24],20.5 MFI
same,fluorescence intensity,[7]; [25],19 MFI
same,fluorescence intensity,[7]; [26],18.5 MFI
same,fluorescence intensity,[7]; [27],18 MFI
same,fluorescence intensity,[7]; [28],19.5 MFI
same,fluorescence intensity,[7]; [29],28 MFI
same,fluorescence intensity,[8]; [30],20 MFI
same,fluorescence intensity,[8]; [31],20 MFI
same,fluorescence intensity,[8]; [24],20.8 MFI
same,fluorescence intensity,[8]; [25],21 MFI
same,fluorescence intensity,[8]; [26],20.5 MFI
same,fluorescence intensity,[8]; [27],20.5 MFI
same,fluorescence intensity,[8]; [28],21 MFI
same,fluorescence intensity,[8]; [29],22.5 MFI
same,fluorescence intensity,[9]; [30],19.2 MFI
same,fluorescence intensity,[9]; [31],20 MFI
same,fluorescence intensity,[9]; [24],19.2 MFI
same,fluorescence intensity,[9]; [25],20.8 MFI
same,fluorescence intensity,[9]; [26],21 MFI
same,fluorescence intensity,[9]; [27],23.8 MFI
same,fluorescence intensity,[9]; [28],22.5 MFI
same,fluorescence intensity,[9]; [29],25.8 MFI
same,fluorescence intensity,[10]; [30],16 MFI
same,fluorescence intensity,[10]; [31],15.5 MFI
same,fluorescence intensity,[10]; [24],16.5 MFI
same,fluorescence intensity,[10]; [25],16 MFI
same,fluorescence intensity,[10]; [26],17 MFI
same,fluorescence intensity,[10]; [27],17 MFI
same,fluorescence intensity,[10]; [28],18.2 MFI
same,fluorescence intensity,[10]; [29],28 MFI
same,fluorescence intensity,[11]; [30],26.5 MFI
same,fluorescence intensity,[11]; [31],26.5 MFI
same,fluorescence intensity,[11]; [24],26.5 MFI
same,fluorescence intensity,[11]; [25],25.8 MFI
same,fluorescence intensity,[11]; [26],26.5 MFI
same,fluorescence intensity,[11]; [27],26.8 MFI
same,fluorescence intensity,[11]; [28],36 MFI
same,fluorescence intensity,[11]; [29],98.5 MFI
same,fluorescence intensity,[12]; [30],28 MFI
same,fluorescence intensity,[12]; [31],26 MFI
same,fluorescence intensity,[12]; [24],26.8 MFI
same,fluorescence intensity,[12]; [25],27.2 MFI
same,fluorescence intensity,[12]; [26],27.8 MFI
same,fluorescence intensity,[12]; [27],26 MFI
same,fluorescence intensity,[12]; [28],29 MFI
same,fluorescence intensity,[12]; [29],33.8 MFI
same,fluorescence intensity,[13]; [30],19.5 MFI
same,fluorescence intensity,[13]; [31],19.8 MFI
same,fluorescence intensity,[13]; [24],19.2 MFI
same,fluorescence intensity,[13]; [25],19.5 MFI
same,fluorescence intensity,[13]; [26],17.8 MFI
same,fluorescence intensity,[13]; [27],18.8 MFI
same,fluorescence intensity,[13]; [28],21.5 MFI
same,fluorescence intensity,[13]; [29],27.2 MFI
same,fluorescence intensity,[14]; [30],18.5 MFI
same,fluorescence intensity,[14]; [31],18.5 MFI
same,fluorescence intensity,[14]; [24],19 MFI
same,fluorescence intensity,[14]; [25],19 MFI
same,fluorescence intensity,[14]; [26],19 MFI
same,fluorescence intensity,[14]; [27],20.5 MFI
same,fluorescence intensity,[14]; [28],22.5 MFI
same,fluorescence intensity,[14]; [29],30.5 MFI
same,fluorescence intensity,[15]; [30],16.5 MFI
same,fluorescence intensity,[15]; [31],16.8 MFI
same,fluorescence intensity,[15]; [24],17.5 MFI
same,fluorescence intensity,[15]; [25],17 MFI
same,fluorescence intensity,[15]; [26],18.5 MFI
same,fluorescence intensity,[15]; [27],17.5 MFI
same,fluorescence intensity,[15]; [28],19 MFI
same,fluorescence intensity,[15]; [29],32.5 MFI
same,fluorescence intensity,[16]; [30],23.5 MFI
same,fluorescence intensity,[16]; [31],25 MFI
same,fluorescence intensity,[16]; [24],24.5 MFI
same,fluorescence intensity,[16]; [25],23 MFI
same,fluorescence intensity,[16]; [26],24.5 MFI
same,fluorescence intensity,[16]; [27],23 MFI
same,fluorescence intensity,[16]; [28],25.5 MFI
same,fluorescence intensity,[16]; [29],28.2 MFI
same,fluorescence intensity,[17]; [30],13 MFI
same,fluorescence intensity,[17]; [31],13.2 MFI
same,fluorescence intensity,[17]; [24],12.5 MFI
same,fluorescence intensity,[17]; [25],12.5 MFI
same,fluorescence intensity,[17]; [26],12.2 MFI
same,fluorescence intensity,[17]; [27],13 MFI
same,fluorescence intensity,[17]; [28],15.5 MFI
same,fluorescence intensity,[17]; [29],19.2 MFI
same,fluorescence intensity,[18]; [30],11.5 MFI
same,fluorescence intensity,[18]; [31],12 MFI
same,fluorescence intensity,[18]; [24],12 MFI
same,fluorescence intensity,[18]; [25],12.5 MFI
same,fluorescence intensity,[18]; [26],13 MFI
same,fluorescence intensity,[18]; [27],12.5 MFI
same,fluorescence intensity,[18]; [28],13.2 MFI
same,fluorescence intensity,[18]; [29],18.5 MFI
same,fluorescence intensity,[19]; [30],16.5 MFI
same,fluorescence intensity,[19]; [31],15.5 MFI
same,fluorescence intensity,[19]; [24],16.5 MFI
same,fluorescence intensity,[19]; [25],15.5 MFI
same,fluorescence intensity,[19]; [26],17 MFI
same,fluorescence intensity,[19]; [27],17.2 MFI
same,fluorescence intensity,[19]; [28],21 MFI
same,fluorescence intensity,[19]; [29],53 MFI
same,fluorescence intensity,[20]; [30],24.5 MFI
same,fluorescence intensity,[20]; [31],25.5 MFI
same,fluorescence intensity,[20]; [24],25.5 MFI
same,fluorescence intensity,[20]; [25],25 MFI
same,fluorescence intensity,[20]; [26],26 MFI
same,fluorescence intensity,[20]; [27],26 MFI
same,fluorescence intensity,[20]; [28],28 MFI
same,fluorescence intensity,[20]; [29],31 MFI
same,fluorescence intensity,[21]; [30],11.5 MFI
same,fluorescence intensity,[21]; [31],11.8 MFI
same,fluorescence intensity,[21]; [24],12 MFI
same,fluorescence intensity,[21]; [25],11.8 MFI
same,fluorescence intensity,[21]; [26],10.5 MFI
same,fluorescence intensity,[21]; [27],11.2 MFI
same,fluorescence intensity,[21]; [28],11.5 MFI
same,fluorescence intensity,[21]; [29],15.5 MFI
same,fluorescence intensity,[22]; [30],24 MFI
same,fluorescence intensity,[22]; [31],24 MFI
same,fluorescence intensity,[22]; [24],25.5 MFI
same,fluorescence intensity,[22]; [25],24.5 MFI
same,fluorescence intensity,[22]; [26],26.5 MFI
same,fluorescence intensity,[22]; [27],25.5 MFI
same,fluorescence intensity,[22]; [28],27.8 MFI
same,fluorescence intensity,[22]; [29],38 MFI
same,fluorescence intensity,[23]; [30],17 MFI
same,fluorescence intensity,[23]; [31],17 MFI
same,fluorescence intensity,[23]; [24],16.5 MFI
same,fluorescence intensity,[23]; [25],16.5 MFI
same,fluorescence intensity,[23]; [26],16 MFI
same,fluorescence intensity,[23]; [27],16.5 MFI

# Part of the list above, with bars between the fields.
binder | measurement | setting | value
4-173.1 (protein) chain 1: QLQLQESGPGLVKPSETLSLTCAVSGASISSNYWSWIRQAPGKGLEWIGRISGSSGSTDYNPSLKSRVTISTDTSKNQFSLKLNSVTAADTAVYYCARVSYWGHYGDYWGQGVLVTVSS chain 2: QPVLTQPSSHSASPGAPARLTCTLSSGFSVGDFWIRWYQQKPGSPPRYLLYYHSDSDKHQGSGVPSRFSGSNDASANAGILHISGLQPEDEADYYCCTWHGNSKTQIFGAGTRLTVL | fluorescence intensity | [8]; [24] | 20.8 MFI
same | fluorescence intensity | [8]; [25] | 21 MFI

# Reformatted: entries from further up
binder	measurement	setting	value
4-173.1 (protein) chain 1: QLQLQESGPGLVKPSETLSLTCAVSGASISSNYWSWIRQAPGKGLEWIGRISGSSGSTDYNPSLKSRVTISTDTSKNQFSLKLNSVTAADTAVYYCARVSYWGHYGDYWGQGVLVTVSS chain 2: QPVLTQPSSHSASPGAPARLTCTLSSGFSVGDFWIRWYQQKPGSPPRYLLYYHSDSDKHQGSGVPSRFSGSNDASANAGILHISGLQPEDEADYYCCTWHGNSKTQIFGAGTRLTVL	fluorescence intensity	[1]; [24]	18.5 MFI
same	fluorescence intensity	[1]; [25]	18 MFI
same	fluorescence intensity	[1]; [26]	18.8 MFI

# From the supplement of paper PMC11438910
